Laboratory results published in the supplement of paper PMC10849652.
Some of the results follow.

The chains behind the UniProt entries cited, without tags or fusion partners. Where a name states a change or a piece, a line headed by the entry shows the natural chain unless it says otherwise.
UniProt Q9H019: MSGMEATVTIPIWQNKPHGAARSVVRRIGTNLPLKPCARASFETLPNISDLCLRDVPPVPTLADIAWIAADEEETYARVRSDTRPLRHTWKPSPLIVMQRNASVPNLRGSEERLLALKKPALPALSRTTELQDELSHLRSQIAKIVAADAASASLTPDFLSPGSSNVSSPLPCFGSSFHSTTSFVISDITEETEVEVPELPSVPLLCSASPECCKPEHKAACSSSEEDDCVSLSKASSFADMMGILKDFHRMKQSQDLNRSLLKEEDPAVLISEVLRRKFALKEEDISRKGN
UniProt P43246, whole entry, looked up: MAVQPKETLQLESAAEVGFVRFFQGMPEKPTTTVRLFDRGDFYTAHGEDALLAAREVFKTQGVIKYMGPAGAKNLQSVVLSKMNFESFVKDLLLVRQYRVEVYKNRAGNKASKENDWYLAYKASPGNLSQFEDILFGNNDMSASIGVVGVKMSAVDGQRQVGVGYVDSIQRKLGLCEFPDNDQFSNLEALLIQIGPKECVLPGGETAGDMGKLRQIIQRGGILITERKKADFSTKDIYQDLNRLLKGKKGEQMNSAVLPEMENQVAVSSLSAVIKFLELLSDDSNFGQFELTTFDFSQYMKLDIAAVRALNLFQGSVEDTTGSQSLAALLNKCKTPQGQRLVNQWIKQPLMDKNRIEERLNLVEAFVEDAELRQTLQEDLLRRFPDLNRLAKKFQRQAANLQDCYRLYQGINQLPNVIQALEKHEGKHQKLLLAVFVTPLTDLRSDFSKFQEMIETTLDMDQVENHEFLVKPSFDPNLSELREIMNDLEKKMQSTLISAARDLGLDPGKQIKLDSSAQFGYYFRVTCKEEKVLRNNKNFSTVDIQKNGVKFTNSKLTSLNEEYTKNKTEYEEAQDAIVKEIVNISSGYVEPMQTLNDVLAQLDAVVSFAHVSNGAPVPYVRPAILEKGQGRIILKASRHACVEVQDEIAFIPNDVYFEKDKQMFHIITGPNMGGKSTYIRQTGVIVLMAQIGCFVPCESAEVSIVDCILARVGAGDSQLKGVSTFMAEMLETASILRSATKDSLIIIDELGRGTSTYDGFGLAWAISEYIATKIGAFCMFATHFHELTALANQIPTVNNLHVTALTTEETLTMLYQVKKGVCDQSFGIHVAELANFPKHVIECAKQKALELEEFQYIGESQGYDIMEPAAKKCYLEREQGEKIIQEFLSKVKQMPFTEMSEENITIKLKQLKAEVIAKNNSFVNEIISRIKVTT
UniProt P00156: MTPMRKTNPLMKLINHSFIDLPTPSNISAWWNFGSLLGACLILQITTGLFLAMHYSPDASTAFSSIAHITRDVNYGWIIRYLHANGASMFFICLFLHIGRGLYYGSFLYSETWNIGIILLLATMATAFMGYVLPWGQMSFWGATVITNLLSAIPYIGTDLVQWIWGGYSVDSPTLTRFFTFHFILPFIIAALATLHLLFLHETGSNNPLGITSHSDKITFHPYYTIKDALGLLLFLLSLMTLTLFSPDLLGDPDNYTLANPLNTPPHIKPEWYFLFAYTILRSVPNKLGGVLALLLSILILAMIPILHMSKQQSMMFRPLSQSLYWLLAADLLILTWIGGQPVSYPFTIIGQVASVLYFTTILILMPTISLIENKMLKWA
UniProt G3V1V0: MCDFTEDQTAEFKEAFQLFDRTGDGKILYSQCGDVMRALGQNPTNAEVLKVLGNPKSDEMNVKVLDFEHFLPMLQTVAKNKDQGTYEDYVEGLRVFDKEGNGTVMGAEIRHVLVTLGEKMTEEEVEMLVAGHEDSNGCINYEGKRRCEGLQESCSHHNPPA
UniProt Q99707: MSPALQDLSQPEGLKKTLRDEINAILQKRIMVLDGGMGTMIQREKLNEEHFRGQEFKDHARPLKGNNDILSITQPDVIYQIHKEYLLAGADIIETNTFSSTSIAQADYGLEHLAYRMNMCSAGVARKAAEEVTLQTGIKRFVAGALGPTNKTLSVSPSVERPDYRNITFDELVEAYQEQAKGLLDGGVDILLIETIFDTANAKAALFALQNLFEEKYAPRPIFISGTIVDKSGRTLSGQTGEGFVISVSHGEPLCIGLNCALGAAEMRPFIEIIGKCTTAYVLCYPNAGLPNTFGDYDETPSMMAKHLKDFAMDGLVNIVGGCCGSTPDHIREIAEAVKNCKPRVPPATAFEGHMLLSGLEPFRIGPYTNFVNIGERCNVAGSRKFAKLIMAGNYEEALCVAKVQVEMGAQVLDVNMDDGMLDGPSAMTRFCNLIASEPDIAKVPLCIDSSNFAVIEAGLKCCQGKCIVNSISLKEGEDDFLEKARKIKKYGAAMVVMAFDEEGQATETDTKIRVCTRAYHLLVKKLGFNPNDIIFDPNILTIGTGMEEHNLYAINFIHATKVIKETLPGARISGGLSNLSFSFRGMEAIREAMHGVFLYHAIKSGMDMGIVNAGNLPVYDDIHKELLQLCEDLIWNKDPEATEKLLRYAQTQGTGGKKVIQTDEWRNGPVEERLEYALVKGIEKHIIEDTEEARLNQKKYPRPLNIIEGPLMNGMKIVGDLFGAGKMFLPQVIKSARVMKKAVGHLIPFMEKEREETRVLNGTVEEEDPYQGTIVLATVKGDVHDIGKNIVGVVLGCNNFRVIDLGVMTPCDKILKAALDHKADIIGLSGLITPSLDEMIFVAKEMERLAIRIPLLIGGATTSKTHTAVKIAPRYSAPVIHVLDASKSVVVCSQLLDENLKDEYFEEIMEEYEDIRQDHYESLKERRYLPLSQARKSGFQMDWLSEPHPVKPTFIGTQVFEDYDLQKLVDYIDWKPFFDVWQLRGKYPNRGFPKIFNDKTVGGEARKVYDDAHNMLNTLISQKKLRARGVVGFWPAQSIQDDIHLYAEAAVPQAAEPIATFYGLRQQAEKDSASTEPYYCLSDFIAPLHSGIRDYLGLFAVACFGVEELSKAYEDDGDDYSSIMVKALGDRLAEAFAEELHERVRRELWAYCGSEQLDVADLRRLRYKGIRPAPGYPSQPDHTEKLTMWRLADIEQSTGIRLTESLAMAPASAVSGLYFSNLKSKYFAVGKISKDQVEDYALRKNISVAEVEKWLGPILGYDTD

Legend:
Experiment in all cases: log2 fold change, soluble protein after heating vs DMSO (PISA); higher = thermal stabilisation; K562 cells, 10 uM, 30 min; active = over 0.2 and 3.5 SD of the protein, either way, in both replicates (recomputed)
[1] = compound: C1=CC=C(C=C1)[C@H](COC2=CC3=C(C=C2)NC(=O)N3)NC(=O)C4=CC=CN(C4=O)CC5=CC(=C(C=C5)F)F
In short: (§1)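 Aliquots of K562 cells (2×10^6 cells/mL) treated with 10 μM compound for 30 min were heated for 3 min over 48°C-58°C. After pooling and extraction in PBS with 0.5% NP-40 at 4°C, soluble protein from a 21,000xg, 90 min spin was quantified by TMTpro 16plex LC-MS/MS with channel sums equalised. Thermal stability is expressed against control samples, from duplicates, as a log2 fold change.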

[2] = compound: CC1=C(SC2=C1C(=N[C@H](C3=NN=C(N32)C)CC(=O)N)C4=CC=C(C=C4)Cl)C
In short: as §1

[3] = compound: CC1=C2C(=CC=C1)N=C(N(C2=O)C3=CC=CC=C3C)CN4C=NC5=C(N=CN=C54)N
In short: as §1

[4] = compound: Cc1sc2c(c1C)C(c1ccc(Cl)cc1)=N[C@@H](CC(=O)OC(C)(C)C)c1nnc(C)n1-2
In short: as §1

[5] = compound: c1ccc([C@@H]2C[C@H]2NC2CCNCC2)cc1
In short: as §1

Measured: log2 fold change

MTFR1L (UniProt Q9H019)
inactive: [1] -0.036 | [2] -0.009 | [3] 0.066 | [4] 0.048 | [5] 0.028

MUC1, A0A087WWM1
inactive: [1] 0.096 | [2] 0.104 | [3] 0.103 | [4] -0.007 | [5] 0.037

MSH2 (UniProt P43246)
inactive: [1] -0.041 | [2] 0.051 | [3] 0.105 | [4] -0.037 | [5] 0.01

MRPS5 (UniProt P82675)
inactive: [1] -0.017 | [2] 0.009 | [3] -0.03 | [4] 0.063 | [5] -0.077

MT-CYB (UniProt P00156)
inactive: [1] 0.024 | [2] 0.079 | [3] 0.013 | [4] -0.057 | [5] 0.122

MYL6 (UniProt G3V1V0)
inactive: [1] -0.119 | [2] 0.079 | [3] -0.003 | [4] -0.058 | [5] 0.135

MTR (UniProt Q99707)
inactive: [1] 0.009 | [2] -0.043 | [3] 0.023 | [4] 0.084 | [5] -0.018

MTMR1 (UniProt Q13613)
inactive: [1] -0.009 | [2] -0.097 | [3] -0.01 | [4] 0.104 | [5] -0.009
